The supplement of paper PMC12819154, “High-throughput peptide-centric local stability assay extends protein–ligand identification to membrane proteins, tissues and bacteria” (Nature Structural & Molecular Biology, 2025)
Some of the results follow. Most values lie at the level of the controls, where differences are scatter.

Protein sequences, listed by entry. Tags and fused reporters are not part of them. Lines headed by an entry give the natural chain unless they say otherwise; changes in a name come on top.
UniProt Q07157: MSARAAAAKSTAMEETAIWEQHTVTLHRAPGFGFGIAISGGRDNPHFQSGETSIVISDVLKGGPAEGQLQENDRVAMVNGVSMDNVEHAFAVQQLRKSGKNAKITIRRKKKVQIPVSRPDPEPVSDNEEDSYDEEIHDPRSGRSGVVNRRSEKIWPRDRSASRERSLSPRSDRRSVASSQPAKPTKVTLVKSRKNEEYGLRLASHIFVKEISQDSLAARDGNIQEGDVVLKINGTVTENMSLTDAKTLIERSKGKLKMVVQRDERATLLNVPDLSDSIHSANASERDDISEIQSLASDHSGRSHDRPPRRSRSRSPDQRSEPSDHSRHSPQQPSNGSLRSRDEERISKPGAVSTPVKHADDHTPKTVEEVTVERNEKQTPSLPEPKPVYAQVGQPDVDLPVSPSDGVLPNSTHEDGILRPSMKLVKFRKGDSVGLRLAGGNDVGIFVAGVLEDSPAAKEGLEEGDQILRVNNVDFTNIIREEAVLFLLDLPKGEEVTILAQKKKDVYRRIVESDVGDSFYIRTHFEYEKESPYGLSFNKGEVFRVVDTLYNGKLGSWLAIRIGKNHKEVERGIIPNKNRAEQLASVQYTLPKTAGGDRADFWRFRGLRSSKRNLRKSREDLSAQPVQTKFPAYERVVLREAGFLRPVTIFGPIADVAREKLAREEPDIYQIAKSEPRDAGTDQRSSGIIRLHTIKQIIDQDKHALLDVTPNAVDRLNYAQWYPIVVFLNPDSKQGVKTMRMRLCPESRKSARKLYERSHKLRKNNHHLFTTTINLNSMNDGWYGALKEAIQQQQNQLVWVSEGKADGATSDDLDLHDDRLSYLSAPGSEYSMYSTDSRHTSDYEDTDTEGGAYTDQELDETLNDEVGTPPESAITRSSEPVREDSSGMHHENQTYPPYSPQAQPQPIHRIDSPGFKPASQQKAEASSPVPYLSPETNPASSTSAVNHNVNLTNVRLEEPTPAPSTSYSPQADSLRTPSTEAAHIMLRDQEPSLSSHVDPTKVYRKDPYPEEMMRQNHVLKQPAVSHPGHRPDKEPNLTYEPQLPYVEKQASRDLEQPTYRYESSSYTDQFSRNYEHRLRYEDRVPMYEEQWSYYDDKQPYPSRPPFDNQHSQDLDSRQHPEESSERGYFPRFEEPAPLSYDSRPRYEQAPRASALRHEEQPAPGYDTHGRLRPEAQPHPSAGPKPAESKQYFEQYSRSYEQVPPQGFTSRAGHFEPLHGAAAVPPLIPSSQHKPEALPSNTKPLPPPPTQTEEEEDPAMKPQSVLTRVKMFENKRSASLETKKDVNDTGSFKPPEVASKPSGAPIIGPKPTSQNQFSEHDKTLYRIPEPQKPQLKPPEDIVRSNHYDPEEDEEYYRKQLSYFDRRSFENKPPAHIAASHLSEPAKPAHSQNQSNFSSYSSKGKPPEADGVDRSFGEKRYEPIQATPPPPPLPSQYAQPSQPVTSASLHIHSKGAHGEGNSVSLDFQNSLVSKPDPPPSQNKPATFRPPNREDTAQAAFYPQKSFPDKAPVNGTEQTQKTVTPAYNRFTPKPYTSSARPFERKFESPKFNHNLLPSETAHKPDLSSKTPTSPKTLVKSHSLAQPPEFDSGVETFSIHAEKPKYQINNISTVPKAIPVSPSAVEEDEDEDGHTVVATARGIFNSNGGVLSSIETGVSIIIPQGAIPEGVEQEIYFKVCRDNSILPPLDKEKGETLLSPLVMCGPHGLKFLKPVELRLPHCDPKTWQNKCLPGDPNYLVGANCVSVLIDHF
UniProt Q04828: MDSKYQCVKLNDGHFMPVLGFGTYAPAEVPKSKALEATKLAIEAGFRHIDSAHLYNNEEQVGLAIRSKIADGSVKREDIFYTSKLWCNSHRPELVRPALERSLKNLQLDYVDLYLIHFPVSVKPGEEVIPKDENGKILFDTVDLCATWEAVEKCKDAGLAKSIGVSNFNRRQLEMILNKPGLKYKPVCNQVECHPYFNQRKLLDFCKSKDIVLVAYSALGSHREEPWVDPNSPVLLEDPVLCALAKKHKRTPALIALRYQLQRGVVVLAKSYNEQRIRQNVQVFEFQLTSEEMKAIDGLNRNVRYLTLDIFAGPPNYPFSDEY
UniProt Q13033: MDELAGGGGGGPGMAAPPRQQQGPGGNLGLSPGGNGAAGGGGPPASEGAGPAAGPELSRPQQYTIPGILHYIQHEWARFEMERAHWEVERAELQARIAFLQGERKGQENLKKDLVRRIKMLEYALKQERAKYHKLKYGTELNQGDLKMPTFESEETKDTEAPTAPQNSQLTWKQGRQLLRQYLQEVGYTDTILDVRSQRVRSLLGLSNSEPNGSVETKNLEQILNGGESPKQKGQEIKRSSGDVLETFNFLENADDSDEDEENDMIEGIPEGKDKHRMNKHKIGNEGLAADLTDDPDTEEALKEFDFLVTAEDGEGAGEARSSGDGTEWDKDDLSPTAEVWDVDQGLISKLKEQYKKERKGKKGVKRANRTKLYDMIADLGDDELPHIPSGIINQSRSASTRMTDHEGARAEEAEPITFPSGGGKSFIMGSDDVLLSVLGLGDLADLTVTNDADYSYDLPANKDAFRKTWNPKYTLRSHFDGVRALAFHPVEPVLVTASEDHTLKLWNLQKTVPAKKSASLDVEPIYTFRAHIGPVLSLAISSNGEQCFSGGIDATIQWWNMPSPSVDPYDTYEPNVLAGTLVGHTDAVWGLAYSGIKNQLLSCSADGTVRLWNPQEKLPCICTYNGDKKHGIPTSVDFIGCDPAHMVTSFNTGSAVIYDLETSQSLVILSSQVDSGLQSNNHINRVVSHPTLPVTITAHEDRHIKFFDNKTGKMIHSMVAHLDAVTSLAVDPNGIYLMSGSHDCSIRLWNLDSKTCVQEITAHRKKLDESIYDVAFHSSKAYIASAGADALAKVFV
UniProt P98170, whole entry: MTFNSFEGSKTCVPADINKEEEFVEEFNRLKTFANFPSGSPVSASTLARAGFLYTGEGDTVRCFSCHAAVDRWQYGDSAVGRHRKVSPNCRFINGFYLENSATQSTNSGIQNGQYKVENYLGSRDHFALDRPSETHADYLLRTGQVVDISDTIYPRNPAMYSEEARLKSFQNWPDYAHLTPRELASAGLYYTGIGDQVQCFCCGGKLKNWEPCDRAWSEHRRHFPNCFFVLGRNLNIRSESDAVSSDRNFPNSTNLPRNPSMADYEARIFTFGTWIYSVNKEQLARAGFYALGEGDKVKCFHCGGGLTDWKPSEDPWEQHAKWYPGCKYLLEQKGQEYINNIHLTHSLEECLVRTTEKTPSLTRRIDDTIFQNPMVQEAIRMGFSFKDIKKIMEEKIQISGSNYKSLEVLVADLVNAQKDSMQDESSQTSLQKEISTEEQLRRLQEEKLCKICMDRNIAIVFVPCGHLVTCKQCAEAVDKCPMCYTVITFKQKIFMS
UniProt P83916, whole entry, looked up: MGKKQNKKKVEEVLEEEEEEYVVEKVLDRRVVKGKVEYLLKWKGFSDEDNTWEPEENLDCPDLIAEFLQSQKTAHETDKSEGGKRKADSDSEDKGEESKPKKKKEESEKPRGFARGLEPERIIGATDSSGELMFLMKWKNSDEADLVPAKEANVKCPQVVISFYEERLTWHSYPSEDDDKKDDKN
UniProt Q0VG06: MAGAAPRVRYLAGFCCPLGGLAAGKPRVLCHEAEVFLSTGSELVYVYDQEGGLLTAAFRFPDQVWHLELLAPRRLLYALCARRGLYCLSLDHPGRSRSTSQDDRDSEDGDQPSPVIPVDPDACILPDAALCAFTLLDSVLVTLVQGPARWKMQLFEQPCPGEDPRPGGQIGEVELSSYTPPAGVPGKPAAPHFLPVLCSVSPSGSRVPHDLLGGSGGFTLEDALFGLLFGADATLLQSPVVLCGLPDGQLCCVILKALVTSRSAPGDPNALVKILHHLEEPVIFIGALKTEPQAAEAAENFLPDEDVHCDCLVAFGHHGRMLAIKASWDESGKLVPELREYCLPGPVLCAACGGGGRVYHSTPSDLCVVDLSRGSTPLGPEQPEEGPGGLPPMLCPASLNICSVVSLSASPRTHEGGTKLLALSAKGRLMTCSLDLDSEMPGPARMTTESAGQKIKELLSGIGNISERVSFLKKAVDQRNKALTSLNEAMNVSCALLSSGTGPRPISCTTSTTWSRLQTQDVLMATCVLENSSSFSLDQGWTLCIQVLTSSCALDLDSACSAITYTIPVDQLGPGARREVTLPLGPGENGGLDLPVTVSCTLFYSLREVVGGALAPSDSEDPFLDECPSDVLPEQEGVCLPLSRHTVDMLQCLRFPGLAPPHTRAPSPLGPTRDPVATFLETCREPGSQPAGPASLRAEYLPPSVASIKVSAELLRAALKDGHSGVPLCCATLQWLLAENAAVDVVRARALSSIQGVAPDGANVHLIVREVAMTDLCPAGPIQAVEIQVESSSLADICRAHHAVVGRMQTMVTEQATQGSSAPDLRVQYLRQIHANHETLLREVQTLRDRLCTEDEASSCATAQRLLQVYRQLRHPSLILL
UniProt Q05048: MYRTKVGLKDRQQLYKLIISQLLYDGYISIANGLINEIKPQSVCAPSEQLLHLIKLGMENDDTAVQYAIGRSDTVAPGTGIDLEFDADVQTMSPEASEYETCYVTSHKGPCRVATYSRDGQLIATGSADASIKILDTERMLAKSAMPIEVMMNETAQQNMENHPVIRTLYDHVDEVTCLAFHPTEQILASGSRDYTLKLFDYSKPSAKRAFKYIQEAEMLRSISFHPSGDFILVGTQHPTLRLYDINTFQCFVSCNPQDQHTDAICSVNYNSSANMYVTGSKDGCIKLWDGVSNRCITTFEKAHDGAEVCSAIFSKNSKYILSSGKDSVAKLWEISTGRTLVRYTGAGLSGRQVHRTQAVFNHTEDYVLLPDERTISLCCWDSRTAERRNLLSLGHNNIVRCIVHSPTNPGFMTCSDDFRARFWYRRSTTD
UniProt Q04917: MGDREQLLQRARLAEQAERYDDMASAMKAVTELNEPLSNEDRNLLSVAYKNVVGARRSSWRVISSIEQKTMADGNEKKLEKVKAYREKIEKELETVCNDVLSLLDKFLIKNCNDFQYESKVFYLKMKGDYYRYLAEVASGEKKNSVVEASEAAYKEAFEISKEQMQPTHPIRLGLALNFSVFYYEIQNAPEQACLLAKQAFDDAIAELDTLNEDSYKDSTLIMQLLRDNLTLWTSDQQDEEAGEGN
UniProt Q06945: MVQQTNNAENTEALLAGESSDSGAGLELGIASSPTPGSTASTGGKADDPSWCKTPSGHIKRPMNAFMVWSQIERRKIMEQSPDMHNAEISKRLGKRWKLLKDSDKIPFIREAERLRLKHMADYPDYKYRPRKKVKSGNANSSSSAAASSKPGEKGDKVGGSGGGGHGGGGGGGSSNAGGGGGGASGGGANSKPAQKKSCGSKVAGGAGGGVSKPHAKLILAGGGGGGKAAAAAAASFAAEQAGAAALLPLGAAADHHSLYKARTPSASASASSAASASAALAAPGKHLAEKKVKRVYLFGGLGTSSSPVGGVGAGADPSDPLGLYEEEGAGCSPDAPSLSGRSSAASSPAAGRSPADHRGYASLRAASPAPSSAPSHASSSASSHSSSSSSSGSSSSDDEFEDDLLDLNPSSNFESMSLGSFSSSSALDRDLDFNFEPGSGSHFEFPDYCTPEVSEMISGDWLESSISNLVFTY
UniProt Q0P6D6: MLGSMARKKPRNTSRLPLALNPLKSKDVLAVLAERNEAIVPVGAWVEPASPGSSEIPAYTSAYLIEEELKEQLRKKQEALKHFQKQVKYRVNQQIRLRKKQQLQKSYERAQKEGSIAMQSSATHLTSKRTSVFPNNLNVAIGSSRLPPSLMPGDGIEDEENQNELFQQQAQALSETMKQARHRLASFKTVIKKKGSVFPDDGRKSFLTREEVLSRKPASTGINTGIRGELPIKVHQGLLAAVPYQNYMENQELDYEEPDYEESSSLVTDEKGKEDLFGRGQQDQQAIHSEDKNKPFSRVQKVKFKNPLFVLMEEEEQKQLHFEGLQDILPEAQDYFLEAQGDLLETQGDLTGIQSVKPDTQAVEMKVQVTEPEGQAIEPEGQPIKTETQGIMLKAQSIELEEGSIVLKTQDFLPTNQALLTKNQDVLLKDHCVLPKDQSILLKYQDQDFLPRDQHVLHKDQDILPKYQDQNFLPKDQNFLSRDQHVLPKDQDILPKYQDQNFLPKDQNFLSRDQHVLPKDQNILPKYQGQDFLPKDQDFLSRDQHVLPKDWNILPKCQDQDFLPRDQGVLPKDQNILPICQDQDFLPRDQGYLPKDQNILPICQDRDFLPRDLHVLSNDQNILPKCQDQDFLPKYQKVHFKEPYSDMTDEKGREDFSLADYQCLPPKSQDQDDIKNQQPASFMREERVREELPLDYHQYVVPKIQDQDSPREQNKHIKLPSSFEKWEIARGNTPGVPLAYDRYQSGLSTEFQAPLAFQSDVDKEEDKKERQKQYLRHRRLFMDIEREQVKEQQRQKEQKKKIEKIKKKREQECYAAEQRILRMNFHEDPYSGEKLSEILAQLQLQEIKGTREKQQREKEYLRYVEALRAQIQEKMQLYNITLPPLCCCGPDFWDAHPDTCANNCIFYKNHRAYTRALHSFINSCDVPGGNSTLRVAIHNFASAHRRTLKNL

Each target was assayed with Cc1nc(Nc2ncc(C(=O)Nc3c(C)cccc3Cl)s2)cc(N2CCN(CCO)CC2)n1 [dasatinib] (assay: log2 fold change of tryptic peptide abundance, ligand vs vehicle (limited proteolysis) (log2 ratio); higher = more trypsin-susceptible (destabilized)). Details: ligand concentration: 5 uM; sample: K562 cleared lysate.
For “PPP3CA (peptide sequence: ITSFEEAK, peptide start residue: 467) (UniProt Q08209)”, the log2 fold change was 0.0808.
“NUCB1 (peptide sequence: YEMLKEHERR, peptide start residue: 179) (UniProt Q02818)” gave a log2 fold change of 0.713.
For “H3F3A (peptide sequence: SAPSTGGVKKPHR, peptide start residue: 29) (UniProt P84243)”, the log2 fold change was -0.0889.
With “TJP1 (peptide sequence: THFEYEKESPYGLSFNKGEVFR, peptide start residue: 523) (UniProt Q07157)” the log2 fold change was 0.215.
Work on “AKR1C1 (peptide sequence: YKPVCNQVECHPYFNQR, peptide start residue: 184) (UniProt Q04828)” yielded a log2 fold change of 0.128.
For “STRN3 (peptide sequence: MPTFESEETK, peptide start residue: 148) (UniProt Q13033)”, the log2 fold change was 0.23.
For “CEBPZ (peptide sequence: RKGTDDFDFAGSFQGPR, peptide start residue: 948) (UniProt Q03701)”, the log2 fold change was -0.234.
Work on “TLE2 (peptide sequence: SPVMAFESHPHLR, peptide start residue: 389) (UniProt Q04725)” yielded a log2 fold change of -0.156.
In the case of “XIAP (peptide sequence: SFQNWPDYAHLTPR, peptide start residue: 169) (UniProt P98170)”, the log2 fold change is reported as 0.402.
“BNIP2 (peptide sequence: QDEPKNEQ, peptide start residue: 307) (UniProt Q12982)” was tested, and the log2 fold change was 0.505.
Target “SPTBN1 (peptide sequence: KHQILEQAVEDYAETVHQLSK, peptide start residue: 1633) (UniProt Q01082)” has a log2 fold change of 0.517.
“GOLGA2 (peptide sequence: AQLEAHLGQVMESVR, peptide start residue: 373) (UniProt Q08379)” was tested, and the log2 fold change was 0.329.
Target “SP2 (peptide sequence: LVPIKPAPLPLSPGK, peptide start residue: 67) (UniProt Q02086)” has a log2 fold change of 0.492.
“UniProt P83916 (peptide sequence: ADSDSEDKGEESKPK, peptide start residue: 87)” was tested, and the log2 fold change was 0.358.
“KIF23 (peptide sequence: GMYWTEGR, peptide start residue: 767) (UniProt Q02241)” was tested, and the log2 fold change was 0.438.
With “TRIM32 (peptide sequence: EAAEERR, peptide start residue: 140) (UniProt Q13049)” the log2 fold change was -0.16.
For “FANCC (peptide sequence: ENHLNGFNTQR, peptide start residue: 163) (UniProt Q00597)”, the log2 fold change was -0.0931.
“UniProt Q0VG06 (peptide sequence: DRLCTEDEASSCATAQR, peptide start residue: 849)” was tested, and the log2 fold change was 0.472.
For “CSTF1 (peptide sequence: AHDGAEVCSAIFSK, peptide start residue: 303) (UniProt Q05048)”, the log2 fold change was -0.472.
“RPL18 (peptide sequence: HFGKAPGTPHSHTKPYVR, peptide start residue: 151) (UniProt Q07020)” gave a log2 fold change of -0.13.
“ABHD18 (peptide sequence: YLEGGHISAYLFK, peptide start residue: 397) (UniProt Q0P651)” was tested, and the log2 fold change was 0.478.
For “YWHAH (peptide sequence: GDREQLLQR, peptide start residue: 2) (UniProt Q04917)”, the log2 fold change was 0.0917.
“SP4 (peptide sequence: FECPECSKR, peptide start residue: 707) (UniProt Q02446)” was tested, and the log2 fold change was -0.866.
“SOX4 (peptide sequence: HMADYPDYK, peptide start residue: 100) (UniProt Q06945)” showed a log2 fold change of -0.657.
For “UniProt P84022 (peptide sequence: KGEQNGQEEKWCEK, peptide start residue: 20)”, the log2 fold change was 0.22.
With “CALD1 (peptide sequence: AAAQERERR, peptide start residue: 301) (UniProt Q05682)” the log2 fold change was -0.246.
With “UniProt Q0P6D6 (peptide sequence: EQECYAAEQR, peptide start residue: 810)” the log2 fold change was 0.213.
With “UniProt Q00056 (peptide sequence: DHKLPNTK, peptide start residue: 220)” the log2 fold change was -0.164.
